One assay concerns the target T1, GFP-SET8 (UniProt Q9NQR1).
T1 sequence: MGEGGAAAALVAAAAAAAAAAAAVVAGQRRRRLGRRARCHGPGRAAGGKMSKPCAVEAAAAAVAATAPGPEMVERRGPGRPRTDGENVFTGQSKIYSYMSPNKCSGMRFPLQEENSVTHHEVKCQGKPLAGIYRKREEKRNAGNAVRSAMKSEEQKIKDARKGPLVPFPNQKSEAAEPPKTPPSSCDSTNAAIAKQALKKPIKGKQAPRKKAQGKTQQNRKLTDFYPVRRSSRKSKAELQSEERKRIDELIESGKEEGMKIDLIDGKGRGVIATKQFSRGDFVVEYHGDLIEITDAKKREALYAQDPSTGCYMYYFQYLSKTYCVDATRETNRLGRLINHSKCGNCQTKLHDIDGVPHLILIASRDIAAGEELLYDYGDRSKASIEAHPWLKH
The assay is described as follows: co-IP.

Protein sequences, listed by entry. Tags and fused reporters are not part of them.
UniProt Q8IYW5: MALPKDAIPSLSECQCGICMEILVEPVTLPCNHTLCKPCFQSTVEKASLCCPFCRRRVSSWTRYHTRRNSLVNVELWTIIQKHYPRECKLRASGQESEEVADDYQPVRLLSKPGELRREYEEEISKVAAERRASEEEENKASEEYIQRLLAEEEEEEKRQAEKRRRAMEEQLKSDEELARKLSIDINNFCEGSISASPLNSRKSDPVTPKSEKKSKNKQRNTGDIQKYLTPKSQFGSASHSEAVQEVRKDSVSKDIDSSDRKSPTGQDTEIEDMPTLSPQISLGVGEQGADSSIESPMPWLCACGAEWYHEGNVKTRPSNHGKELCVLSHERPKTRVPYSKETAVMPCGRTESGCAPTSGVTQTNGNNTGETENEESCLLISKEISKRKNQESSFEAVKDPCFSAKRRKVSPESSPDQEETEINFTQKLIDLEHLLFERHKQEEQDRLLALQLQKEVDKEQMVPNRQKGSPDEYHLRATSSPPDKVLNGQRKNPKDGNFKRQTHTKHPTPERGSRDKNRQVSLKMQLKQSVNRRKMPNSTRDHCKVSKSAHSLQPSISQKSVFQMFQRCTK

The next assay has as its target T2, 3×Flag-SET8 (UniProt Q9NQR1).
T2 sequence: T1 sequence
The assay is described as follows: co-IP.

Another assay has as its target GFP-RNF168 (UniProt Q8IYW5). As to the kind of experiment: co-IP.
The next assay concerns the target LacR-mCherry-RNF168 (UniProt Q8IYW5). As to the kind of experiment: LacO/LacR chromatin tethering with confocal microscopy.

These are yes or no findings as the source states them, for the method shown. For some of these results: Binding seen in cells or lysates may run through a third protein. Some binding calls cover weakened binding; strength is not graded here. Where a sequence is shown, tags or fusion partners need not be part of it.

As for “3×Flag-RNF168 (from UniProt Q8IYW5 1-571)”, the binding result with GFP-SET8 is listed as “binds”.

Take GFP-RNF168 (from UniProt Q8IYW5 1-571): in the assay with 3×Flag-SET8, the binding entry was “binds”.

B1: 3×Flag-SET8 (protein, UniProt Q9NQR1 1-393)
chain: T1 sequence
Regarding B1, in the assay with GFP-RNF168, the binding entry is reported as “binds”.

B2: GFP-SET8 (protein, UniProt Q9NQR1 1-393)
chain: T1 sequence
For the molecule B2, the binding entry with LacR-mCherry-RNF168 is “binds”.

Source of the values: publication doi:10.1101/766147.
